PubChem BioAssay AID248 (DTP/NCI, 2004)
The list shows only some results of the screen, not a fair sample: it is rich in T/C values a quarter to a half above the control, in often repeated tests (any T/C) and in doses without a T/C. Other doses and runs of a compound stand elsewhere. T/C gives the treated animals as a percentage of the vehicle group. Some entries give survivors of the animals treated and no T/C: the source holds a T/C of zero for them, seemingly a mark for toxic or unscored doses. Some survivor counts are full or nearly so, which does not show that the dose was tolerated: the source hardly ever lists a survival T/C far under the control, and the zero likely stands for such cases as well. Survivors were counted at the toxicity check, usually on the fifth day, unless a day is given; later deaths do not show. Schedules are NCI's codes, taken here to give the interval after Q, in days (D) or hours (H), and the number of doses after X. For survival time, the PubChem record calls one and a half times the control and up active, and a quarter to a half above the control has no call in these data; cut-offs in other NCI protocols can differ. Some entries were tested several times; the results are listed from low to high. Brackets with × count equal records among those shown.

System: L1210 leukemia ip in BDF1 mice, survival T/C
Test: NCI In Vivo Anticancer Drug Screen. Data for tumor model L1210 Leukemia (intraperitoneal) in B6D2F1 (BDF1) mice
Conditions: T/C endpoint: mean survival time, higher T/C = longer survival
[1] = dose: 200.0 mg/kg/injection, schedule: Q04DX003 (ip), vehicle: saline
[2] = dose: 400.0 mg/kg/injection, schedule: Q04DX003 (ip), vehicle: saline
[3] = dose: 400.0 mg/kg/injection, schedule: Q01DX009 (ip), vehicle: Klucel (hydroxypropylcellulose) (HPC)
[4] = dose: 300.0 mg/kg/injection, schedule: Q01DX001 (ip), vehicle: saline
[5] = dose: 400.0 mg/kg/injection, schedule: Q04DX002 (ip), vehicle: Klucel (hydroxypropylcellulose) (HPC)
[6] = dose: 400.0 mg/kg/injection, schedule: Q01DX001 (ip), vehicle: saline
[7] = dose: 200.0 mg/kg/injection, schedule: Q04DX003 (ip), vehicle: saline with Tween-80
[8] = dose: 400.0 mg/kg/injection, schedule: Q04DX003 (ip), vehicle: saline with Tween-80
[9] = dose: 200.0 mg/kg/injection, schedule: Q01DX001 (ip), vehicle: saline
[10] = dose: 200.0 mg/kg/injection, schedule: Q01DX009 (ip), vehicle: Klucel (hydroxypropylcellulose) (HPC)

Structure (SMILES): CON(C)C(=O)CCN1CC1
- survivor count [1]: 3 of 6
- survivor count [2]: 0 of 6

Structure (SMILES): Nc1nc(SCc2ccccc2)c2ncn(C3OC(CO)CC3O)c2n1 (stereo not drawn)
- T/C (dose: 177.0 mg/kg/injection, schedule: Q01DX001 (ip), vehicle: carboxymethylcellulose (CMC)): 126 % of control
- T/C (dose: 200.0 mg/kg/injection, schedule: Q01DX001 (ip), vehicle: carboxymethylcellulose (CMC)): 125 % of control
- T/C (dose: 200.0 mg/kg/injection, schedule: Q01DX009 (ip), vehicle: other): 137 % of control
- T/C (dose: 266.0 mg/kg/injection, schedule: Q01DX001 (ip), vehicle: carboxymethylcellulose (CMC)): 136 % of control
- T/C (dose: 400.0 mg/kg/injection, schedule: Q01DX001 (ip), vehicle: carboxymethylcellulose (CMC)): 127 % of control

Structure (SMILES): COc1cc(OC)c(OC)cc1CNC1CCCCCCC1
- survivor count (dose: 200.0 mg/kg/injection, schedule: Q04DX002 (ip), vehicle: saline): 1 of 3
- survivor count (dose: 400.0 mg/kg/injection, schedule: Q04DX002 (ip), vehicle: saline): 0 of 3

Structure (SMILES): NC(=O)NCC(=O)O
- survivor count [3]: 1 of 6

Structure (SMILES): CCCCCc1c(C)nc([N+](=O)[O-])nc1N
- survivor count (dose: 12.5 mg/kg/injection, schedule: Q01DX001 (ip), vehicle: saline with Tween-80): 0 of 6
- survivor count (dose: 25.0 mg/kg/injection, schedule: Q01DX001 (ip), vehicle: saline with Tween-80): 0 of 6
- survivor count (dose: 50.0 mg/kg/injection, schedule: Q01DX001 (ip), vehicle: saline with Tween-80): 0 of 6

Structure (SMILES): O=[N+]([O-])c1ccc([As](=O)(O)c2ccc([N+](=O)[O-])cc2)cc1
- survivor count [4]: 3 of 6

Structure (SMILES): CC(=O)Nc1ccc(S(=O)(=O)Nc2cc(C)c(C)cc2C)cc1
- survivor count [5]: 3 of 3

Structure (SMILES): CCOC(=O)c1cccc(N(CCOS(C)(=O)=O)CCOS(C)(=O)=O)c1
- survivor count (dose: 128.0 mg/kg/injection, schedule: Q01DX015 (ip), vehicle: saline): 5 of 6

Structure (SMILES): CCS(=O)(=O)/C=C\S(=O)(=O)CC
- survivor count (dose: 100.0 mg/kg/injection, schedule: Q04DX003 (ip), vehicle: Klucel (hydroxypropylcellulose) (HPC)): 1 of 6
- survivor count (dose: 200.0 mg/kg/injection, schedule: Q04DX003 (ip), vehicle: Klucel (hydroxypropylcellulose) (HPC)): 0 of 6
- survivor count (dose: 400.0 mg/kg/injection, schedule: Q04DX003 (ip), vehicle: Klucel (hydroxypropylcellulose) (HPC)): 0 of 6

Structure (SMILES): Cc1nnc2c([N+](=O)[O-])cccn12
- survivor count [6]: 0 of 6

Structure (SMILES): CC1=NN(c2ccccc2)C(=O)/C1=C\c1ccccc1
- survivor count [3]: 4 of 6

Structure (SMILES): O=S(=O)(OCCCl)c1ccc(Cl)c(S(=O)(=O)OCCCl)c1
- survivor count [7]: 1 of 3
- survivor count [8]: 0 of 3

Structure (SMILES): CN(C)CCCN(C)CCCCN(C)CCCN(C)C
- survivor count [9]: 2 of 4
- survivor count [6]: 2 of 4

Structure (SMILES): Cc1cnc(/N=C(\N)N2CCOCC2)nc1-c1ccccc1O
- survivor count [5]: 0 of 3

Structure (SMILES): CC(C)=CC=O
- survivor count (dose: 400.0 mg/kg/injection, schedule: Q01DX009 (ip), vehicle: saline sonified): 3 of 6

Structure (SMILES): Nc1ccc(N=Nc2ccc(C(=O)Nc3ccc4cc(S(=O)(=O)O)ccc4c3)cc2)c(N)c1N=Nc1ccc(N=Nc2ccc(O)c(C(=O)O)c2)cc1
- survivor count (dose: 150.0 mg/kg/injection, schedule: Q04DX003 (ip), vehicle: saline): 1 of 6
- survivor count (dose: 225.0 mg/kg/injection, schedule: Q04DX003 (ip), vehicle: saline): 0 of 6
- survivor count (dose: 335.0 mg/kg/injection, schedule: Q04DX003 (ip), vehicle: saline): 2 of 6

Structure (SMILES): CC(=O)OCCC/C(=C\c1ccc(F)cc1)[N+](=O)[O-]
- survivor count (dose: 200.0 mg/kg/injection, schedule: Q01DX001 (ip), vehicle: other): 2 of 4
- survivor count (dose: 400.0 mg/kg/injection, schedule: Q01DX001 (ip), vehicle: other): 0 of 4

Structure (SMILES): Cc1nc(NCc2ccccc2)c2cc[nH]c2n1
- survivor count (dose: 50.0 mg/kg/injection, schedule: Q01DX001 (ip), vehicle: saline): 0 of 4
- survivor count (dose: 50.0 mg/kg/injection, schedule: Q01DX009 (ip), vehicle: Klucel (hydroxypropylcellulose) (HPC)): 5 of 6
- survivor count (dose: 50.0 mg/kg/injection, schedule: Q04DX003 (ip), vehicle: Klucel (hydroxypropylcellulose) (HPC)): 2 of 4
- survivor count (dose: 100.0 mg/kg/injection, schedule: Q01DX001 (ip), vehicle: saline): 0 of 4
- survivor count (dose: 100.0 mg/kg/injection, schedule: Q01DX009 (ip), vehicle: Klucel (hydroxypropylcellulose) (HPC)): 0 of 6
- survivor count [9]: 0 of 4
- survivor count [10]: 0 of 6
- survivor count [6]: 0 of 4
- survivor count [3]: 0 of 6

Structure (SMILES): Nc1nc2ncc(NCc3ccc(C(=O)NC(CCC(=O)O)C(=O)O)cc3)nc2c(=O)[nH]1 (stereo not drawn)
- T/C (dose: 100.0 mg/kg/injection, schedule: Q04DX003 (ip), vehicle: saline): 92, 94, 97, 98 % of control
- T/C [1]: 95 (2×), 97, 104 % of control
- T/C [2]: 89, 97, 100, 125 % of control

Structure (SMILES): O=C=Nc1ccc(C(=O)CCl)cc1
- survivor count (dose: 320.0 mg/kg/injection, schedule: Q01DX009 (ip), vehicle: saline with Tween-80): 3 of 6

Structure (SMILES): CC(=O)CCCc1ccccc1
- survivor count [2]: 2 of 6

Structure (SMILES): CCCCCCCCCCNC(=O)C[n+]1cccc(C(=O)Nc2ccc(Cl)cc2)c1
- survivor count (dose: 25.0 mg/kg/injection, schedule: Q01DX009 (ip), vehicle: acetone): 3 of 6
- survivor count (dose: 50.0 mg/kg/injection, schedule: Q04DX003 (ip), vehicle: saline): 2 of 6
- survivor count (dose: 100.0 mg/kg/injection, schedule: Q04DX003 (ip), vehicle: acetone): 0 of 6
- survivor count (dose: 200.0 mg/kg/injection, schedule: Q04DX003 (ip), vehicle: acetone): 0 of 6
- survivor count (dose: 400.0 mg/kg/injection, schedule: Q04DX003 (ip), vehicle: acetone): 0 of 6

Structure (SMILES): Cc1ccc(N=Nc2ccc(C)cc2NC(=O)Nc2cc(Cl)ccc2C)cc1
- survivor count [3]: 3 of 6

Structure (SMILES): CC(=N\O)/C(=N/O)c1ccc(O)cc1
- survivor count (dose: 40.0 mg/kg/injection, schedule: Q01DX001 (ip), vehicle: saline): 0 of 6
- survivor count (dose: 75.0 mg/kg/injection, schedule: Q01DX001 (ip), vehicle: saline): 0 of 6
- survivor count (dose: 80.0 mg/kg/injection, schedule: Q01DX001 (ip), vehicle: saline): 0 of 6
- survivor count (dose: 150.0 mg/kg/injection, schedule: Q01DX001 (ip), vehicle: saline): 0 of 6
- survivor count [4]: 1 of 6

Structure (SMILES): OCCSc1ccc(Cl)cc1
- survivor count (dose: 400.0 mg/kg/injection, schedule: Q01DX009 (ip), vehicle: other): 0 of 6

Structure (SMILES): O=C(O)COc1ccccc1
- survivor count [10]: 4 of 6
- survivor count (dose: 300.0 mg/kg/injection, schedule: Q01DX009 (ip), vehicle: Klucel (hydroxypropylcellulose) (HPC)): 0 of 6

Structure (SMILES): CCOC(=O)c1ccc(NC(=O)Nc2cccc(F)c2)cc1
- survivor count [3]: 2 of 3

Structure (SMILES): O=c1cc[nH]c2ccc(Cl)cc12
- survivor count [9]: 1 of 6
- survivor count [6]: 0 of 6

Structure (SMILES): C[N+](C)(C)Cc1ncccc1OC(=O)N(c1ccccc1)c1ccccc1
- survivor count [7]: 5 of 6
- survivor count [8]: 0 of 6

Structure (SMILES): Cc1[nH]c2ccc(N=CN(C)C)cc2c1C
- survivor count (dose: 200.0 mg/kg/injection, schedule: Q04DX002 (ip), vehicle: saline with Tween-80): 0 of 3
- survivor count (dose: 400.0 mg/kg/injection, schedule: Q04DX002 (ip), vehicle: saline with Tween-80): 0 of 3

Structure (SMILES): O=[N+]([O-])c1c(Cl)ccc2c(Cl)ccnc12
- survivor count (dose: 400.0 mg/kg/injection, schedule: Q04DX003 (ip), vehicle: gum acacia): 2 of 6
